Values of other authors, collected in patent publication US20230165841A1, “PREVENTION AND INTERVENTION OF INFARCT EXPANSION FOLLOWING HEMORRHAGIC INFARCTIONS” (CEDARS-SINAI MEDICAL CENTER, priority 2020, published 2023).
For at least one compound, name, drawing or mass did not settle the structure.

Legend:
[1] = cited from earlier work
[2] = test system: mice with reperfused MI; details: pre-treating prior to ischemia; cited from earlier work

SMILES	Location EC: extracellular IC: intracellular [1]	Oxidation state of chelated iron and chemical stability [1]	Mitochondrial iron and reperfusion injury [2]
c1ccc(-c2ccccn2)nc1 [BPD, 2,2-bipyridl]	IC & EC	Stable Fe^2+	
CC(=O)N(O)CCCCCNC(=O)CCC(=O)N(O)CCCCCNC(=O)CCC(=O)N(O)CCCCCN [DFO, deferoxamine]			not
O=C(O)c1ccc(-n2nc(-c3ccccc3O)nc2-c2ccccc2O)cc1 [DFX, Deferasirox]	IC & EC	Stable Fe^3+	
